Results published in PubChem BioAssay AID2685 (National Center for Advancing Translational Sciences (NCATS), 2010).
This is one part of the list. Further columns of the screen follow, without active or inactive calls. Compounds called inactive in the main read-out are mostly missing here. The note in brackets gives the kind of curve behind each potency; many fits are weak.

Assay: qHTS Assay for Lipid Storage Modulators in Drosophila S3 Cells;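 for cell number change: cells counted by Cell Tracker Red CMTPX staining in the red channel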
Settings: BODIPY lipid droplet fluorescence, 18-24 h; for cell number change: measured here: cell count max response, cells fed with added oleic acid
Outline: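 Laser-scanning cytometry quantifies lipid droplet accumulation (500–530 nm total intensity; droplet/cell object ratio) in oleic acid-fed (400 uM added) Drosophila S3 cells treated with a concentration series. 20 uM Triacsin C defined 100% inhibition.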

[1] = measured here: lipid fluorescence (Fed channel) AC50, cells fed with added oleic acid
[2] = measured here: cell number channel AC50, cells fed with added oleic acid

Structure (SMILES)	cell number change [%]	AC50 [1]	AC50 [2]
O=C(CCS(=O)(=O)Cc1ccccc1)NC1CCCCC1	-10.5	4.11 µM [falling, full curve]	
Clc1ccc(-c2nnc3sc(-c4ccco4)nn23)c(Cl)c1	4.5	29.1 µM [falling, single point]	
CC(NC(=O)c1ccco1)C12CC3CC(CC(C3)C1)C2 (stereo unspecified)	-11.3	6.51 µM [rising, single point]	
Cc1cccc2sc(N(CCN(C)C)C(=O)/C=C/c3cccs3)nc12	-56.1	13 µM [falling, partial curve]	11.6 µM [falling, partial curve]
CC(C)Cn1c(-c2ccco2)csc1=Nc1cccnc1	-6	6.51 µM [falling, single point]	
S=c1[nH]nc(Cc2ccc(Br)cc2)n1/N=C/c1ccc(Cl)cc1	-38		17.8 µM [falling, single point]
Cc1cccc(OCC(O)Cn2ccnc2C)c1 (stereo unspecified)	-25.3	29.1 µM [falling, single point]	
CCC1(c2ccc(F)cc2)NC(=O)N(CC(=O)Nc2ccccc2Cl)C1=O (stereo unspecified)	6.31	29.1 µM [falling, partial curve, poor fit]	
C[C@H](NC(=O)C1CCC(CNC(=O)[C@@H]2CCCN2C(=O)OC(C)(C)C)CC1)C(=O)O (stereo partly specified)	-12.8		
COc1ccc(OC)c(S(=O)(=O)N/N=C(/C)c2c[nH]c3ccccc23)c1	-15.3		0.082 µM [rising, full curve, poor fit]
COC(=O)c1c(C(=O)OC)c(-c2ccc(F)cc2)n2c1CS(=O)C2 (stereo unspecified)	33.8		13 µM [rising, partial curve, poor fit]
O=C(CNCc1ccccc1Cl)Nc1ccc(C(=O)N2CCCCC2)cc1	2.5	0.58 µM [falling, single point]	
CCN(Cc1ccccc1)c1ccc(/C=N/N=C(N)N)cc1	-76.7		29.1 µM [falling, single point]
Cc1ccc(-c2nc(N)sc2CC(=O)OCC(=O)NCC2CCCO2)cc1 (stereo unspecified)	11.9	6.51 µM [rising, single point]	
CCOC(=O)Cc1csc(NC(=O)CSc2nnc(C)n2C)n1	-18	0.116 µM [falling, full curve]	
CCn1nc(C)cc1C(=O)N1CCCC(C(=O)c2cccc(OC)c2)C1 (stereo unspecified)	-36.1	13 µM [falling, partial curve]	20.6 µM [falling, single point]
COCCn1nnnc1C(c1ccccc1)N1CCN(Cc2ccc3c(c2)OCO3)CC1 (stereo unspecified)	4.79	16.4 µM [rising, single point]	
Cc1cc2ccccc2cc1CN1CCCCC1	-1.57	29.1 µM [rising, single point]	
CCC1(c2ccc(F)cc2)NC(=O)N(CC(=O)c2ccc[nH]2)C1=O (stereo unspecified)	10.6		6.51 µM [falling, single point]
CCOc1ccc(C2c3c(oc4ccccc4c3=O)C(=O)N2c2ccc(C)cn2)cc1OC (stereo unspecified)	42.3	2.91 µM [rising, single point]	5.17 µM [rising, partial curve]
CC(=O)c1cc(CN2C(=O)CCC2=O)cs1	-14.8		

Some of these compounds in order of molar mass, ascending:
Structure (SMILES)	cell number change [%]	AC50 [1]	AC50 [2]
CC(=O)c1cc(CN2C(=O)CCC2=O)cs1	-14.8		
Cc1cc2ccccc2cc1CN1CCCCC1	-1.57	29.1 µM [rising, single point]	
Cc1cccc(OCC(O)Cn2ccnc2C)c1 (stereo unspecified)	-25.3	29.1 µM [falling, single point]	
CCN(Cc1ccccc1)c1ccc(/C=N/N=C(N)N)cc1	-76.7		29.1 µM [falling, single point]
O=C(CCS(=O)(=O)Cc1ccccc1)NC1CCCCC1	-10.5	4.11 µM [falling, full curve]	
CCC1(c2ccc(F)cc2)NC(=O)N(CC(=O)c2ccc[nH]2)C1=O (stereo unspecified)	10.6		6.51 µM [falling, single point]
Clc1ccc(-c2nnc3sc(-c4ccco4)nn23)c(Cl)c1	4.5	29.1 µM [falling, single point]	
COC(=O)c1c(C(=O)OC)c(-c2ccc(F)cc2)n2c1CS(=O)C2 (stereo unspecified)	33.8		13 µM [rising, partial curve, poor fit]
CCOC(=O)Cc1csc(NC(=O)CSc2nnc(C)n2C)n1	-18	0.116 µM [falling, full curve]	
Cc1cccc2sc(N(CCN(C)C)C(=O)/C=C/c3cccs3)nc12	-56.1	13 µM [falling, partial curve]	11.6 µM [falling, partial curve]
O=C(CNCc1ccccc1Cl)Nc1ccc(C(=O)N2CCCCC2)cc1	2.5	0.58 µM [falling, single point]	
CCC1(c2ccc(F)cc2)NC(=O)N(CC(=O)Nc2ccccc2Cl)C1=O (stereo unspecified)	6.31	29.1 µM [falling, partial curve, poor fit]	
C[C@H](NC(=O)C1CCC(CNC(=O)[C@@H]2CCCN2C(=O)OC(C)(C)C)CC1)C(=O)O (stereo partly specified)	-12.8		
COCCn1nnnc1C(c1ccccc1)N1CCN(Cc2ccc3c(c2)OCO3)CC1 (stereo unspecified)	4.79	16.4 µM [rising, single point]	
CCOc1ccc(C2c3c(oc4ccccc4c3=O)C(=O)N2c2ccc(C)cn2)cc1OC (stereo unspecified)	42.3	2.91 µM [rising, single point]	5.17 µM [rising, partial curve]

The results go on.

Structure (SMILES)	cell number change [%]	AC50 [1]	AC50 [2]
CCCCNc1cc(C)nc(NCc2ccccc2)n1	-75.9	6.51 µM [falling, partial curve]	23.1 µM [falling, partial curve, poor fit]
COC(=O)c1cccc(CN2C(=O)SC(Nc3ccc(C)cc3)C2=O)c1 (stereo unspecified)	19.7		4.61 µM [rising, full curve, poor fit]
C=C(C)c1cccc(C(C)(C)NC(=O)N2CCC(C)CC2)c1	-4.88		
Cc1ccc(NC(=O)COC(=O)C2C3CC4OC(=O)C2C4C3)cc1 (stereo unspecified)	10.3		
Cc1cc(C(=O)NCCc2ccc(Cl)cc2)c2ccccc2n1	4.76		
Cc1cc(Cl)ccc1OCCCC(=O)NNC(=O)c1ccccc1O	40.6		29.1 µM [rising, single point]
CCOCc1nnc(NC(=O)c2cccs2)s1	0.944	14.6 µM [rising, partial curve, poor fit]	
CCCCNc1nc(N(C)c2ccccc2)nc(-n2ccnc2)n1		5.8 µM [falling, single point]	
OC(CN1CCN(c2cccc(C(F)(F)F)c2)CC1)c1c[nH]c2ccccc12 (stereo unspecified)	-28.6	20.6 µM [falling, partial curve, poor fit]	
O=C(COC(=O)C12CC3CC(CC(O)(C3)C1)C2)Nc1ccc(Br)cc1F	-19.2	32.6 µM [falling, single point]	
Cc1c(NC(=O)Nc2ccc(Cl)cc2)c(=O)n(-c2ccccc2)n1C	-55.3		29.1 µM [falling, partial curve]
O=C(c1ccc(-c2ccccc2)cc1)N1CCN(c2ncccn2)CC1		6.51 µM [rising, single point]	
COc1ccc(-c2csc(Cc3nnc(N4CCOCC4)n3-c3ccccc3)n2)cc1OC	23.3		
CCC(C)c1c(O)nc(SCC(=O)N2CCCCC2)[nH]c1=O (stereo unspecified)	13.6	0.058 µM [rising, full curve, poor fit]	
CCOC(=O)C1CCN(CC(=O)Nc2c(C(=O)OC)[nH]c3ccc(Cl)cc23)CC1	-128		
Cc1ccc(S(=O)(=O)N(C)CC(=O)Nc2cccnc2)cc1	23	20.6 µM [rising, partial curve, poor fit]	
O=C(N/N=C/c1ccc(Cl)cc1Cl)c1ccc(-n2cnnn2)cc1	-8.88	0.00461 µM [rising, full curve, poor fit]	
O=C(CN1CCCC1)N1CCCC(c2ccc(F)cc2)c2ccc(F)cc21 (stereo unspecified)	1.34	0.13 µM [rising, full curve, poor fit]	
CC(=O)N1CCN(C(=O)COc2ccccc2C(=O)Nc2ccccc2)CC1	13.6		0.0731 µM [falling, full curve, poor fit]
COc1ccc(C2C(C(=O)OC(C)C)=C(C)N=c3s/c(=C\c4cccs4)c(=O)n32)cc1 (stereo unspecified)	-84.2		
CC(C)CNC(=O)COC(=O)c1ccc(Cl)c(S(=O)(=O)N2CCc3ccccc32)c1	-21.2		0.00517 µM [rising, full curve, poor fit]

Structure (SMILES)	cell number change [%]	AC50 [1]	AC50 [2]
O=c1c2[nH]c3ccc(Cl)cc3c2ncn1CCN1CCCCC1	-21.8		
O=c1[nH]c(SCCN2CCOCC2)nc(O)c1-c1ccccc1	-13	29.1 µM [falling, single point]	
O=C(NC1CCCCCC1)c1cc(S(=O)(=O)N2CCC3(CC2)OCCO3)ccc1F	-33.1	23.1 µM [falling, single point]	18.4 µM [falling, single point]
COc1ccc(-n2c(Cc3cc(=O)[nH]c(=O)[nH]3)nnc2SCc2ccccc2)cc1		0.259 µM [falling, full curve, poor fit]	
CCC(NC(=O)CCc1nnc(-c2cc(C)on2)o1)C12CC3CC(CC(C3)C1)C2 (stereo unspecified)	-32		23.1 µM [falling, partial curve, poor fit]
NS(=O)(=O)c1ccc(NC(=O)/C=C/c2cn(-c3ccccc3)nc2-c2cccc(Cl)c2)cc1	-9.56		
O=C(OCc1ccc2c(c1)OCO2)c1ccc(S(=O)(=O)N2CCCC2)cc1	14.7		
Fc1cc(F)cc(-c2c(-c3ccccc3)ncc3ccc(F)cc23)c1	-40.1		7.31 µM [falling, single point]
COCC(C)N1CCC(Oc2cccc(C(=O)NCCc3ccccc3)c2)CC1 (stereo unspecified)	-22.5	0.58 µM [falling, single point]	
CCOC(=O)N1CCC(NC(=O)CS(=O)(=O)Cc2nc(-c3ccc(OC)cc3)oc2C)CC1	-52.7		23.1 µM [falling, partial curve, poor fit]
Cn1c(Cc2ccc3c(c2)OCO3)nnc1SCC(=O)NC(C)(C)C	13.1		
O=C(CCC1CCCC1)NNC(=O)c1cc2ccccc2cc1O	-25.7		
Cc1onc(-c2ccccc2)c1NC(=O)N(CCC#N)Cc1cccs1	-11.2	0.164 µM [falling, partial curve, poor fit]	
CCOC(=O)c1c(NC(=O)C(C)NCc2ccco2)sc2c1CCC(C)C2 (stereo unspecified)			6.51 µM [rising, single point]
Cc1ccc(S(=O)(=O)/N=C(/Nc2nc(C)cc(C)n2)N2CCOCC2)cc1	4.33		
COC(=O)Cn1cc(C(=O)OC)cc(Br)c1=O	-14.7	29.1 µM [falling, single point]	
CCc1c(C)nc(Nc2nc(C)c3ccc(OC)cc3n2)[nH]c1=O	10.9	0.651 µM [rising, partial curve, poor fit]	0.517 µM [rising, full curve]
CC(NC(=O)CCc1nnc(CCCc2ccccc2)o1)c1ccccc1 (stereo unspecified)	-29.2	16.4 µM [falling, partial curve]	
S=C(NCc1ccc(Cl)cc1)NC1CCN(Cc2ccccc2)CC1	-45.1	35.5 µM [falling, single point]	35.5 µM [falling, single point]
C[C@@H]1NC(=O)OC1c1ccco1 (stereo partly specified)	-17.4		0.517 µM [falling, full curve, poor fit]
Cc1nc(CC(=O)N2CCN(S(=O)(=O)c3ccccc3C#N)CC2)cs1	-0.361	2.31 µM [rising, single point]	2.91 µM [rising, single point]
